# Assay results: article PMC5007439
# Chains of the proteins cited; added tags and fusions are not shown.
# UniProt P03612: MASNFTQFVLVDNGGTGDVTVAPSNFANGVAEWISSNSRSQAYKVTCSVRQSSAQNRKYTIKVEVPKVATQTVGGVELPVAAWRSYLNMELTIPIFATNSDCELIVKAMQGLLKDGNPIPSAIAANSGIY
# Results are given in words; binding and its absence hold for the method and conditions named. Some results given as binding are weak or reduced against the parent protein; the word gives no strength.
# Molecular target: bacteriophage MS2 coat protein (bacteriophage MS2) (UniProt P03612)
# Experiment: cryo-EM structure; single particle cryo-EM of purified MS2 virions (coat protein, A-protein and RNA genome); icosahedral reconstruction at 4.1 Å and asymmetric reconstruction at 8.7 Å; both purified
binder,measurement,value
"bacteriophage MS2 maturation protein (A-protein) (protein, UniProt P03610 1-393) MRAFSTLDRENETFVPSVRVYADGETEDNSFSLKYRSNWTPGRFNSTGAKTKQWHYPSPYSRGALSVTSIDQGAYKRSGSSWGRPYEEKAGFGFSLDARSCYSLFPVSQNLTYIEVPQNVANRASTEVLQKVTQGNFNLGVALAEARSTASQLATQTIALVKAYTAARRGNWRQALRYLALNEDRKFRSKHVAGRWLELQFGWLPLMSDIQGAYEMLTKVHLQEFLPMRAVRQVGTNIKLDGRLSYPAANFQTTCNISRRIVIWFYINDARLAWLSSLGILNPLGIVWEKVPFSFVVDWLLPVGNMLEGLTAPVGCSYMSGTVTDVITGESIISVDAPYGWTVERQGTAKAQISAMHRGVQSVWPTTGAYVKSPFSMVHTLDALALIRQRLSR",binding,binds
